This is one part of the list. Shown are side measurements of this screen, not its main read-out; they come without a call. Most of these compounds were active or inconclusive in the main read-out, so they are no random draw. Words in brackets tell the shape of the fitted curve; partial curves, single points and poor fits give uncertain potencies.
Experiment: qHTS Assay to Find Inhibitors of Chronic Active B-Cell Receptor Signaling
Details: ABC-DLBCL IkBa-CBG/CBR reporter, luminescence ratio (green luciferase fused to IkBa over red control in TMD8 lymphoma cells), 4 h
In short: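 Cell line TMD8 (human ABC DLBCL), stably expressing tet-inducible CBG68-IkBa fusion and CBR; IMDM/0.5% FBS; cpd up to 46 uM; dox induction, 4 h, 37C/5% CO2; dual luminescence; green/red ratio; MG132 control.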

[1] = measured here: CBR red luminescence, cell number
[2] = measured here: IkBa-CBG green luminescence

SMILES	AC50 [1]	AC50 [2]
COc1ccc(C(=O)CC(=O)C(=O)Nc2ccc(C)cc2Cl)cc1	35.5 µM [rising, partial curve, poor fit]	–
COc1ccccc1NC(=O)c1nc(S(=O)(=O)Cc2ccccc2)ncc1Cl	12.6 µM [falling, single point]	–
COc1ccc(S(=O)(=O)n2nc(-c3ccc(Cl)cc3)cc2N)cc1OC	11.6 µM [falling, single point]	–
O=C(CSc1nc(-c2ccc(Cl)cc2)cs1)Nc1cccc([N+](=O)[O-])c1	16.4 µM [falling, single point]	–
CC1CCCC(C)N1CC(O)COCc1ccccc1 (stereo not drawn)	12.6 µM [rising, single point]	–
CN(C)S(=O)(=O)c1ccc(Cl)c(NC(=O)CN2CCN(c3ccccn3)CC2)c1	35.5 µM [rising, single point]	–
Cc1ccc(S(=O)(=O)N2CCOCCOCCOCCOCCOCC2)cc1	0.112 µM [rising, full curve, poor fit]	–
CC1CCN(CC(=O)N2CCCc3c2c(=O)oc2ccc(OCc4ccccc4)cc32)CC1	7.31 µM [falling, partial curve, poor fit]	–
CCCOc1ccc(Br)cc1CSC(=N)N	29.1 µM [falling, single point]	–
O=S1(=O)C=CC(Nc2cccc(Cl)c2)C1 (stereo not drawn)	29.1 µM [falling, single point]	–
CSc1ccccc1OCc1cc(C(=O)N2CCC(c3ccncc3)CC2)no1	35.5 µM [falling, single point]	–
O=S(=O)(NCC1CCN(S(=O)(=O)c2ccccc2)CC1)c1ccccc1	32.6 µM [rising, single point]	–
O=C1Nc2ccc(Br)cc2C1Cc1ccccc1F (stereo not drawn)	17.8 µM [falling, single point]	–
O=C(O)c1c(NC(=O)N2CCOCC2)sc2c1CCCC2	22.4 µM [falling, single point]	–
c1ccc(-c2noc(CC3CCCCC3)n2)nc1	35.5 µM [falling, single point]	–
O=C(CSc1ncnc2ccccc12)Nc1cc(S(=O)(=O)N2CCCCC2)ccc1Cl	29.1 µM [falling, single point]	–
C/C(CCc1ccc2c(c1)OCO2)=N\NC(=O)c1ccccc1Br	7.94 µM [falling, partial curve]	–
O=C(Nc1ccc2c(c1)OCO2)C1CCCN(c2nc3ccccc3s2)C1 (stereo not drawn)	11.2 µM [falling, partial curve]	–
COc1ccc(C(c2c(C)n(C)n(-c3ccccc3)c2=O)c2c(C)n(C)n(-c3ccccc3)c2=O)cc1O	35.5 µM [rising, partial curve, poor fit]	–
Cc1oc2c(C)c(O)ccc2c(=O)c1-c1cnn(-c2ccccc2)c1	2.82 µM [rising, full curve, poor fit]	–
CCn1cc([N+](=O)[O-])c(C(=O)Nc2ccc(Cn3nc(C)cc3C)cc2)n1	3.98 µM [falling, single point]	3.98 µM [rising, partial curve, poor fit]
O=C(NC(=S)Nc1ccccc1O)c1ccc(Cl)cc1Cl	0.501 µM [rising, full curve, poor fit]	–

Quoted at random: 3 records from the list
SMILES	AC50 [1]	AC50 [2]
COc1ccc(S(=O)(=O)n2nc(-c3ccc(Cl)cc3)cc2N)cc1OC	11.6 µM [falling, single point]	–
O=S(=O)(NCC1CCN(S(=O)(=O)c2ccccc2)CC1)c1ccccc1	32.6 µM [rising, single point]	–
COc1ccccc1NC(=O)c1nc(S(=O)(=O)Cc2ccccc2)ncc1Cl	12.6 µM [falling, single point]	–

Following part

SMILES	AC50 [1]	AC50 [2]
Clc1ccc(-c2cn3cccnc3n2)cc1	6.51 µM [rising, partial curve, poor fit]	–
Nc1nnnn1CC(=O)N/N=C/c1cc([N+](=O)[O-])ccc1O	35.5 µM [falling, single point]	–
COc1ccc(Cl)cc1C(=O)NNC(=O)c1csc(N2CCOCC2)n1	32.6 µM [falling, single point]	–
CC(C)=C1C2CCC1C(C(=O)Nc1sc(C)c(-c3ccc(C(C)C)cc3)c1C(N)=O)C2C(=O)O (stereo not drawn)	29.1 µM [falling, single point]	–
O/N=C/C1=C(Cl)c2ccccc2CC1	11.2 µM [rising, single point]	–
CN(C)c1cc[n+](CC(=O)Nc2c(Cl)cc(Cl)cc2Cl)cc1	12.6 µM [falling, partial curve, poor fit]	–
C/C(=N\NC(=O)c1cccs1)c1c(O)cc(C)oc1=O	25.1 µM [falling, single point]	–
CCc1ccc(C(=O)Nc2nc3ccccc3[nH]2)cc1	0.631 µM [falling, full curve]	–
O=C(Nc1ccc(-n2cccn2)cc1)C1CCCCN1Cc1cccc2c1OCO2 (stereo not drawn)	35.5 µM [rising, single point]	20 µM [falling, single point]
COc1ccc(-n2nc(C(=O)Nc3ccc(OC)c(OC)c3)c3c4ccccc4n(C)c3c2=O)cc1	8.2 µM [falling, partial curve, poor fit]	–
Cc1cccc(NC(c2cccc(F)c2)c2ccc3ccc(C)nc3c2O)n1 (stereo not drawn)	2.24 µM [falling, full curve]	–
O=C(NCc1ccco1)C1CCCN(S(=O)(=O)c2cnc[nH]2)C1 (stereo not drawn)	29.1 µM [rising, single point]	–
COc1cccc(OCCSc2nnc3sc4ccccc4n23)c1	14.6 µM [falling, partial curve, poor fit]	–
COc1ccccc1C(=O)ON=C1c2ccccc2-c2ccccc21	5.17 µM [falling, partial curve]	23.1 µM [rising, partial curve, poor fit]
O=C(C[n+]1cc(-c2ccc(Cl)cc2)n2c1CCC2)Nc1nc(-c2ccc(F)cc2)cs1	11.2 µM [falling, partial curve]	–
COc1cccc(CN2CCN(Cc3cc4ccccc4[nH]3)CC2CCO)c1 (stereo not drawn)	14.1 µM [rising, partial curve, poor fit]	–
O=C(NCc1ccco1)c1cccc(Nc2nc3ccc(Br)cc3[nH]2)c1	14.6 µM [falling, single point]	–
O=C(CSc1nnc2ccc(-c3cccnc3)nn12)Nc1ccc(F)cc1F	35.5 µM [falling, single point]	–
COc1ccc(CC(NC(C)=O)C(=O)NC2CCN(c3nc(C)cc(C)c3C#N)CC2)c(OC)c1 (stereo not drawn)	8.91 µM [rising, single point]	–
COc1ccc([N+](=O)[O-])cc1NC(C)C	14.6 µM [rising, partial curve, poor fit]	–
Cc1cc(C)c2nc3nc(C)cc(C)c3c(N)c2c1	16.4 µM [falling, single point]	–
CC1CCN(CCCNC(=O)c2ccc(CSCc3cccc(Cl)c3)o2)CC1	32.6 µM [falling, single point]	–

SMILES	AC50 [1]	AC50 [2]
COc1ccc(-c2cc(-c3nc4ccccn4c3NCc3ccccc3)ccc2OC)cc1	7.31 µM [falling, partial curve]	32.6 µM [rising, partial curve, poor fit]
CCOn1c(=O)c(-c2cc3ccccc3o2)[n+]([O-])c2ccccc21	23.1 µM [rising, single point]	–
N=c1n(CCN2CCCCC2)c2ccccc2n1CC(O)c1ccc(Cl)c(Cl)c1 (stereo not drawn)	14.6 µM [falling, partial curve, poor fit]	–
COc1cc(Nc2nc(SCc3ccccc3F)nc3ccccc23)cc(OC)c1	35.5 µM [falling, single point]	–
CC(=O)c1cccc(OC(=O)c2cc(S(=O)(=O)N3CCOCC3)ccc2N2CCCC2)c1	4.11 µM [rising, full curve]	–
COc1ccccc1/C=C/C(=O)NCc1cccnc1	22.4 µM [falling, single point]	–
Cc1cccc(-n2nnc(C(=O)NCc3ccccc3Cl)c2N)c1	7.94 µM [falling, partial curve, poor fit]	–
C/C(CC(=O)Nc1ccccn1)=N\NC(=O)c1cccc(C)c1	4.47 µM [falling, partial curve]	–
COc1ccccc1CN1CC(C(=O)NCc2cccnc2)CC1=O (stereo not drawn)	5.17 µM [rising, full curve, poor fit]	–
COc1ncccc1-c1nnn(-c2ccccc2)n1	10 µM [falling, partial curve, poor fit]	–
O=C(Nc1nc2c(s1)CCc1ccccc1-2)c1ccco1	29.1 µM [falling, single point]	–
CSc1nnc(-c2ccc(Cl)cc2Cl)o1	0.447 µM [rising, partial curve, poor fit]	–
CCn1c(/C=C\c2ccccc2C)nc2ccccc2c1=O	15.8 µM [falling, single point]	–
CC(Sc1nnnn1C)C(=O)Nc1nc(-c2ccc(F)c(F)c2)cs1 (stereo not drawn)	0.731 µM [rising, full curve, poor fit]	–
CC(=O)NCCc1cc2cc(C)c(C)cc2[nH]c1=O	0.112 µM [falling, full curve, poor fit]	–
c1ccc(-n2cnc3cc(NCc4cccs4)ccc32)cc1	12.6 µM [falling, partial curve, poor fit]	–
C=CCOC(=O)CCC(=O)Nc1cc(OC)nc(OC)n1	–	25.9 µM [rising, partial curve, poor fit]
CCOc1ccccc1/C=C/c1nc2ccccc2[nH]c1=O	35.5 µM [falling, single point]	–
COc1cc([N+](=O)[O-])ccc1NC(=O)NCC1CCN(Cc2ccc(Cl)cc2)CC1	17.8 µM [falling, single point]	–
CC1CN(C(=O)/C=C/c2ccc3c(c2)OCO3)CC(C)O1 (stereo not drawn)	13 µM [rising, partial curve, poor fit]	–
